Experimental data reported in PMC9372576.

Sequences of proteins named here, by UniProt entry; tags and fusion partners are left off. A change or cut given only in a name is not applied to a line headed by its entry.
UniProt Q9HI16: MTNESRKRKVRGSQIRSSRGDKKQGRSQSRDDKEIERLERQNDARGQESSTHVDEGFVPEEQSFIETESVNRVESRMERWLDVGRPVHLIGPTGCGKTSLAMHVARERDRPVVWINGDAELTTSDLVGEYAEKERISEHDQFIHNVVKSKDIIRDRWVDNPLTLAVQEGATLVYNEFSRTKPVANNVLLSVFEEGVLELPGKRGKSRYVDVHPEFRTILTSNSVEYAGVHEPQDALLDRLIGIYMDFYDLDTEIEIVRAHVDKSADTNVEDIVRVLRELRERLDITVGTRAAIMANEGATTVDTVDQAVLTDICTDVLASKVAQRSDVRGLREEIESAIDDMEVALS

B1: GvpC (protein, UniProt P24574 1-382)
chain: MSVTDKRDEMSTARDKFAESQQEFESYADEFAADITAKQDDVSDLVDAITDFQAEMTNTTDAFHTYGDEFAAEVDHLRADIDAQRDVIREMQDAFEAYADIFATDIADKQDIGNLLAAIEALRTEMNSTHGAFEAYADDFAADVAALRDISDLVAAIDDFQEEFIAVQDAFDNYAGDFDAEIDQLHAAIADQHDSFDATADAFAEYRDEFYRIEVEALLEAINDFQQDIGDFRAEFETTEDAFVAFARDFYGHEITAEEGAAEAEAEPVEADADVEAEAEVSPDEAGGESAGTEEEETEPAEVETAAPEVEGSPADTADEAEDTEAEEETEEEAPEDMVQCRVCGEYYQAITEPHLQTHDMTIQEYRDEYGEDVPLRPDDKT
B2: GvpO (protein, UniProt O51968 1-119)
chain: MADPANDRSEREEGGEDDETPPASDGNPSPSANSFTLSNAQTRAREAAQDLLEHQFEGMIKAESNDEGWRTVVEVVERNAVPDTQDIIGRYEITLDGTGDVTGYELLERYRRGDMKEEL
B3: GvpA (protein, UniProt P08958 1-76)
chain: MAQPDSSGLAEVLDRVLDKGVVVDVWARVSLVGIEILTVEARVVAASVDTFLHYAEEIAKIEQAELTAGAEAAPEA

Molecular target: CBDN (Halobacterium salinarum) (UniProt Q9HI16)
Experiment: pull-down; CBD-tagged bait and one untagged prey co-produced in Hfx. volcanii CBDX/Y transformants; lysate in 2.5 M KCl buffer pH 8.0 bound to cellulose (Avicel), six washes, elution with ethylene glycol, Western analysis with Gvp antisera

binding, binds:
B1
B2
B3

Results are given in words; binding and its absence hold for the method and conditions named. Binding seen in cells or lysates may run through a third protein. Binding calls can cover weak binding; strength is not graded here.
